Laboratory results from patent publication KR20220001106A.
No constants are given. Whether binding was seen depends on the method and setting. Binding calls can cover weak binding; strength is not graded here.

Columns and labels:
[1] = molecular target: FcγRⅡ (R&D system, 1597-CF); assay: Octet BLI, receptor on anti-penta-His sensor, antibody 100 nM as analyte
[2] = molecular target: FcγRⅢ (R&D system, 1257-Fc); assay: as above

binding [1]: binds | binding [2]: binds
B1: Hz2-F (antibody with SEQ ID NO 32 and SEQ ID NO 31) (antibody, human IgG1, L234A L235A, V domains shown)
VH: EVQLVESGGGLVQPGGSLRLSCAVSGIDLNRYSLTWIRQAPGKGLEWVAIVGGSGVTYYANWAKGRFTISRDDSKNTLYLQMNSLRAEDTAVYYCARGSDRSAYAPDIWGQGTLVTVSS
VL: DIQLTQSPSSLSASVGDRVTITCQSSQSIYSNNYLAWYQQKPGKAPKLLLYQASKLASGVPSRFSGSGSGTDFTLTISSLQPEDFATYYCLGVYDDDADNAFGQGTKVEIKR
